# In PubChem BioAssay AID504467 (National Center for Advancing Translational Sciences (NCATS), 2011):
# Out of some 330,000 compounds screened, about 7,700 (2.3%) were called active. Inconclusive results, whose numbers are uncertain, are shown with a selection of clear calls. The call rests on the fitted dose curve; in most records, active means well fitted inhibition curve with a large enough effect; inconclusive means small, poorly fitted or top-dose-only effect, or effect the other way; inactive means flat fitted curve, though single readings scatter. Potencies of inconclusive entries are doubtful fits and often do not repeat.
# Test: qHTS screen for small molecules that inhibit ELG1-dependent DNA repair in human embryonic kidney (HEK293T) cells expressing luciferase-tagged ELG1; further: nearly all actives have a fitted effect of over 55% in size
# Conditions: HEK293T ELG1-luciferase reporter, luminescence, 16 h, DNA damage induced by 5-fluorouridine; series mostly up to 46.1 µM
# How it was run: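 Step one: seed 2,000 cells per well. Step two: pin-transfer compound or DMSO alongside 5-fluorouridine. Step three: incubate 16 hr, 37 °C, 5% CO2. Step four: add ONE-Glo, wait 30 min, read luminescence.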
# Potency means the concentration at half of the fitted maximal effect.
row,Compound,Potency
1,COc1cccc(-c2ncc3ccccc3c2COC(=O)c2cccc(Br)c2)c1,"inconclusive: 23.1 µM [inhibitor, single point]"
2,COc1cc(C2C(C#N)=C(N)N(N(C)C)C3=C2C(=O)CCC3)ccc1O (configuration not stated),"inconclusive: 32.6 µM [inhibitor, single point]"
3,COc1ccc2nc(N3C(=O)CNC3=S)sc2c1,"inconclusive: 14.6 µM [activator, partial curve]"
4,N#C/C(=C\c1ccccn1)c1nc2ccccc2s1,"inconclusive: 29.1 µM [activator, single point]"
5,O=C(Nc1cccnc1)c1noc2c1CCCC2,"inconclusive: 13 µM [activator, partial curve]"
6,N#Cc1c(NC(=O)CSc2nc(N)cc(=O)[nH]2)sc2c1CCCCCC2,"inconclusive: 6.51 µM [inhibitor, partial curve, poor fit]"
7,O=C(CSc1nnc(NC(=O)c2ccco2)s1)Nc1cccc(F)c1,"inconclusive: 20.6 µM [activator, single point]"
8,Cc1cccc(C2CC(c3ccc(F)cc3)Nc3nc(N)nn32)c1 (configuration not stated),"inconclusive: 16.4 µM [activator, partial curve, poor fit]"
9,CN(Cc1ccccc1)c1nc(N)nc(Cl)c1C=O,inactive
10,C=CCSc1nnc(NC(=O)c2ccc(N3CCCC3=O)cc2)s1,"inconclusive: 9.2 µM [activator, partial curve]"
11,COC(=O)[C@H](CC(C)C)NC(=O)Nc1ccc2c(c1)OCCO2,"inconclusive: 18.4 µM [activator, single point]"
12,COc1ccc(C(=O)NCc2nnc(SCC(=O)N3CCCc4ccccc43)o2)cc1OC,inactive
13,CC(=O)Nc1ccccc1C(=O)C(=O)Nc1cccc(Br)c1,"inconclusive: 32.6 µM [activator, single point]"
14,CNC(=O)N(O)C1N(/N=C/c2cc(Br)ccc2O)C(=S)SC1(C)C (configuration not stated),inactive
15,CN(Cc1ccccc1)S(=O)(=O)c1ccc(NC(=S)NC(=O)C2CCCCC2)cc1,"inconclusive: 16.4 µM [inhibitor, partial curve]"
16,Cc1cccc(-c2ncc(CN3CCN(C4CCCC4)C(CCO)C3)cn2)c1 (configuration not stated),inactive
17,O=C(O)c1ccc(N/N=C2/CCSc3ccc(F)cc32)cc1,"inconclusive: 16.4 µM [activator, partial curve]"
18,O=C(COc1cccc(Br)c1)N/N=C1\CCCc2ccccc21,"inconclusive: 13 µM [activator, partial curve, poor fit]"
19,Cc1ccc(NC(=O)/C(C#N)=C/c2cc(C)n(-c3ccc(N4CCOCC4)c([N+](=O)[O-])c3)c2C)c(C)c1,"inconclusive: 3.66 µM [inhibitor, partial curve, poor fit]"
20,Clc1ccc(-c2nc3ccccn3c2CN2CCSCC2)cc1,"inconclusive: 29.1 µM [inhibitor, single point]"
21,O=C(Nc1ccc(C(=O)N2CCC(N3CCOCC3)CC2)cc1)c1ccc(Br)o1,"inconclusive: 12.6 µM [activator, single point]"

# Part of the list above in another layout:
row | Compound | Potency
4 | N#C/C(=C\c1ccccn1)c1nc2ccccc2s1 | inconclusive: 29.1 µM [activator, single point]
5 | O=C(Nc1cccnc1)c1noc2c1CCCC2 | inconclusive: 13 µM [activator, partial curve]
6 | N#Cc1c(NC(=O)CSc2nc(N)cc(=O)[nH]2)sc2c1CCCCCC2 | inconclusive: 6.51 µM [inhibitor, partial curve, poor fit]
7 | O=C(CSc1nnc(NC(=O)c2ccco2)s1)Nc1cccc(F)c1 | inconclusive: 20.6 µM [activator, single point]
8 | Cc1cccc(C2CC(c3ccc(F)cc3)Nc3nc(N)nn32)c1 (configuration not stated) | inconclusive: 16.4 µM [activator, partial curve, poor fit]
9 | CN(Cc1ccccc1)c1nc(N)nc(Cl)c1C=O | inactive
10 | C=CCSc1nnc(NC(=O)c2ccc(N3CCCC3=O)cc2)s1 | inconclusive: 9.2 µM [activator, partial curve]
11 | COC(=O)[C@H](CC(C)C)NC(=O)Nc1ccc2c(c1)OCCO2 | inconclusive: 18.4 µM [activator, single point]
12 | COc1ccc(C(=O)NCc2nnc(SCC(=O)N3CCCc4ccccc43)o2)cc1OC | inactive

# Remaining list, next part.

row,Compound,Potency
1,COc1ccc(C2/C(=C(\O)c3ccc4c(c3)OCCO4)C(=O)C(=O)N2Cc2cccnc2)cc1 (configuration not stated),"inconclusive: 0.517 µM [inhibitor, single point]"
2,Cc1c(C(=O)N2CCN(Cc3ccc4c(c3)OCO4)CC2)cccc1[N+](=O)[O-],"inconclusive: 25.9 µM [inhibitor, single point]"
3,CCOc1cc(N2CCOCC2)c(OCC)cc1NC(=O)c1c(-c2ccccc2Cl)noc1C,"inconclusive: 20.6 µM [inhibitor, partial curve]"
4,O=C(NCc1ccncc1)C(=O)Nc1nc(C23CC4CC(CC(C4)C2)C3)cs1,active: 18.4 µM
5,COc1ccc(OC)c(NC(=O)c2ccccc2NS(=O)(=O)c2cccc3cccnc23)c1,inactive
6,C=CCN(C(=O)Nc1ccc(Cl)cc1)C1CC(=O)N(c2ccc(OC)cc2)C1=O (configuration not stated),inactive
7,Cc1cc(=O)[nH]c2c1cnn2C(C)c1ccccc1 (configuration not stated),inactive
8,COCCN=C1N[C@@H](c2ccccc2)C(C(=O)OC)=C(C)N1Cc1ccccc1,inactive
9,O=C(NCSc1ccccc1)c1ccccc1,"inconclusive: 14.1 µM [activator, partial curve, poor fit]"
10,O=C(O)CSCC(=O)Nc1ccc(-c2nc3ccccc3s2)cc1,"inconclusive: 13 µM [activator, partial curve]"
11,COc1ccc(NC(=O)C2=Cc3cccc(OC)c3OC2)cc1,"inconclusive: 6.51 µM [activator, single point]"
12,Cc1ccc(-c2nnn3c2nc(Cl)c2ccccc23)cc1,"inconclusive: 8.2 µM [activator, partial curve]"
13,COc1cc(OC)cc(C(=O)OCC(=O)NC(c2ccccc2)c2ccccc2)c1,"inconclusive: 13 µM [activator, partial curve, poor fit]"
14,Cc1cc(C(=O)OCC(=O)Nc2cc(C(F)(F)F)ccc2N2CCOCC2)c(C)o1,"inconclusive: 29.1 µM [inhibitor, single point]"
15,O=C(Nc1cc2c(oc1=O)CCCC2=O)c1ccc(Cl)cc1,"inconclusive: 25.9 µM [activator, single point]"
16,CCN1C/C(=C\c2cccc([N+](=O)[O-])c2)C(=O)/C(=C/c2cccc([N+](=O)[O-])c2)C1,active: 3.26 µM
17,CCN(CC)C(=O)COc1coc(CN2CCN(c3ccccc3F)CC2)cc1=O,inactive
18,O=C(c1ccco1)N1CCN(c2ccc([N+](=O)[O-])c(N3CCOCC3)c2)CC1,"inconclusive: 23.1 µM [inhibitor, single point]"
19,O=C(Nc1ccc(N2CCN(C(=O)c3cccs3)CC2)cc1)c1ccc([N+](=O)[O-])o1,"inconclusive: 25.9 µM [inhibitor, single point]"
20,C=CCn1c(C)cc(C(=O)CSc2nc3ccccc3o2)c1C,"inconclusive: 2.59 µM [activator, partial curve]"
21,Nc1nc2c(c(=O)[nH]1)C(c1ccccc1)C1=C(N2)c2ccccc2C1=O (configuration not stated),"inconclusive: 10.3 µM [activator, partial curve, poor fit]"
